Laboratory results from patent US20230354808A1, “METHOD OF CONTROLLING SOYBEAN RUST FUNGUS RESISTANT TO QOI FUNGICIDE” (priority 2020, published 2023).
At least one read-out could not be matched to a standard name with certainty. Some results were stated once for a whole list of compounds, not compound by compound.

System: soybean rust fungus (Phakopsora pachyrhizi) having an amino acid substitution of F129L on mitochondrial cytochrome b protein
Assay: Test Example 1 / Comparative Test Example 1: soybean leaf disk test, lesion area of soybean rust disease
Type: in vivo
Settings: for lesion area of the leaf disk as % of the lesion area of the untreated leaf disk: test compound applied at 50 ppm, soybean leaf disk

| Compound | lesion area of the leaf disk as % of the lesion area of the untreated leaf disk [%] | Lesion Area at each of concentrations (%) (3.1 ppm) | Lesion Area at each of concentrations (%) (12.5 ppm) |
| --- | --- | --- | --- |
| CO/C=C(/C(=O)OC)c1cc(Oc2ccsc2)ccc1C [4-74] | ≤ 30 | – | – |
| CNC(=O)C(=NOC)c1cc(Oc2ccccc2)ccc1C [4-9] | ≤ 30 | – | – |
| CO/C=C(/C(=O)OC)c1cc(Oc2ccccc2OC)ccc1C [4-28] | ≤ 30 | – | – |
| CO/C=C(/C(=O)OC)c1cc(C2CCCCC2)ccc1C [12-3] | ≤ 30 | – | – |
| CO/C=C(/C(=O)OC)c1cc(Oc2ncc(C)s2)ccc1C [14-5] | ≤ 30 | – | – |
| CO/C=C(/C(=O)OC)c1cc(Oc2cc(F)cc(F)c2)ccc1C [4-27] | ≤ 30 | – | – |
| CO/C=C(/C(=O)OC)c1cc(Oc2nc3ccc(Cl)cc3o2)ccc1C [14-33] | ≤ 30 | – | – |
| COc1nn(C)c(=O)n1-c1cc(-c2ccccc2F)ccc1C [2-8] | ≤ 30 | 10 | 0 |
| CO/C=C(/C(=O)OC)c1cc(/C=C/C(=O)OC)ccc1C [2-5] | ≤ 30 | – | – |
| CO/C=C(/C(=O)OC)c1cc(Oc2ncc(C(F)(F)F)s2)ccc1C [14-8] | ≤ 30 | 10 | 0 |
| CO/C=C(/C(=O)OC)c1cc(Oc2ccc(F)cc2F)ccc1C [4-24] | ≤ 30 | – | – |
| CO/C=C(/C(=O)OC)c1cc(Oc2nc3c(F)cc(F)cc3s2)ccc1C [14-32] | ≤ 30 | – | – |
| CO/C=C(/C(=O)OC)c1cc(Oc2cccc(C(F)(F)F)n2)ccc1C [4-43] | ≤ 30 | – | – |
| CO/C=C(/C(=O)OC)c1cc(OCc2ccccc2)ccc1C [1A-1] | ≤ 30 | – | – |
| CNC(=O)/C(=N/OC)c1ccccc1CO/N=C(C)/C(=N/OC)C(/C)=N/OC [drawing 302, reference compound] | – | 100 | 100 |
| Cc1ccc(Oc2nc(-c3cccc(Br)c3)cs2)cc1-n1nnn(C)c1=O [14-34] | ≤ 30 | – | – |
| CO/C=C(/C(=O)OC)c1cc(/C=C/c2ccccc2)ccc1C [2-3] | ≤ 30 | – | – |
| CO/C=C(/C(=O)OC)c1cc(Oc2ccc(F)cc2)ccc1C [4-3] | ≤ 30 | 0 | 0 |
| CO/C=C(/C(=O)OC)c1cc(C(C)=NN=C(C)c2nccs2)ccc1C [11-18] | ≤ 30 | – | – |
| CO/C=C(/C(=O)OC)c1cc(Oc2ccc(F)cn2)ccc1C [4-62] | ≤ 30 | – | – |
| CO/C=C(/C(=O)OC)c1cc(Oc2ncc(F)cc2F)ccc1C [4-65] | ≤ 30 | – | – |
| CO/C=C(/C(=O)OC)c1cc(Oc2ncccn2)ccc1C [14-17] | ≤ 30 | – | – |
| CO/C=C(/C(=O)OC)c1cc(C)cc(Oc2ccccc2F)c1 [4-79] | ≤ 30 | – | – |

| Compound | lesion area of the leaf disk as % of the lesion area of the untreated leaf disk [%] | Lesion Area at each of concentrations (%) (3.1 ppm) | Lesion Area at each of concentrations (%) (12.5 ppm) |
| --- | --- | --- | --- |
| CO/C=C(/C(=O)OC)c1cc(Oc2ncc(Cl)s2)ccc1C [14-6] | ≤ 30 | 10 | 0 |
| CO/C=C(/C(=O)OC)c1cc(C)cc(Oc2ccccc2)c1 [4-48] | ≤ 30 | – | – |
| CO/C=C(/C(=O)OC)c1cc(OCc2ccccc2F)ccc1C [1A-2] | ≤ 30 | – | – |
| CON=C(C(=O)OC)c1cc(Oc2ccccc2F)ccc1C [4-10] | ≤ 30 | – | – |
| CO/C=C(/C(=O)OC)c1cc(Oc2cccc(C)n2)ccc1C [4-42] | ≤ 30 | – | – |
| CO/C=C(/C(=O)OC)c1cc(Oc2ccc(Cl)cc2)ccc1C [4-22] | ≤ 30 | – | – |
| COc1nn(C)c(=O)n1-c1cc(C#CC(C)(C)C)ccc1C [1-4] | ≤ 30 | – | – |
| COc1nn(C)c(=O)n1-c1cc(COc2cc(C)ccc2C)ccc1C [9-5] | ≤ 30 | – | – |
| CO/N=C(\Oc1cc(C#CC(C)(C)C)ccc1C)C(=O)OC [1-1] | ≤ 30 | 10 | 0 |
| CO/C=C(/C(=O)OC)c1cc(Oc2ccccc2)ccc1C [4-1] | ≤ 30 | – | – |
| CCC/C=C/c1ccc(C)c(/C(=C\OC)C(=O)OC)c1 [2-2] | ≤ 30 | 30 | 10 |
| CO/C=C(/C(=O)OC)c1cc(Oc2cccc(F)c2)ccc1C [4-6] | ≤ 30 | – | – |
| CO/C=C(/C(=O)OC)c1cc(Oc2nc(Br)cs2)ccc1C [14-13] | ≤ 30 | – | – |
| CO/C=C(/C(=O)OC)c1cc(Oc2cccc(C)c2)ccc1C [4-13] | ≤ 30 | – | – |
| COc1nn(C)c(=O)n1-c1cc(C#CC2CC2)ccc1C [1-3] | ≤ 30 | – | – |
| CO/C=C(/C(=O)OC)c1cc(Oc2ncc(C#CC3CC3)s2)ccc1C [14-10] | ≤ 30 | – | – |
| CO/C=C(/C(=O)OC)c1cc(CON=C(C)c2ccccc2)ccc1C [10-1] | ≤ 30 | – | – |
| CO/C=C(/C(=O)OC)c1ccccc1Oc1cc(Oc2ccccc2C#N)ncn1 [drawing 300, reference compound] | – | 100 | 100 |
| CO/C=C(/C(=O)OC)c1ccccc1COc1cccc(C(F)(F)F)n1 [drawing 301, reference compound] | – | 100 | 100 |
| CON=C(C1=NOCCO1)c1cc(C#CC(C)(C)C)ccc1C [1-10] | ≤ 30 | – | – |
| CO/C=C(/C(=O)OC)c1cc(/C=C/C2CC2)ccc1C [2-9] | ≤ 30 | – | – |
| CO/C=C(/C(=O)OC)c1cc(Oc2nc(Cl)cs2)ccc1C [14-3] | ≤ 30 | – | – |
